± gives the standard deviation of the averaged measurements. This is a selection; strong and weak results do not stand in their true shares. Most entries show no effect beyond the scatter of the controls.
Compound: Nc1ncnc2c1ncn2[C@@H]1O[C@H](COP(=O)(O)OP(=O)(O)NP(=O)(O)O)[C@@H](O)[C@H]1O [adenylyl imidodiphosphate]
Assay: NP40-soluble protein abundance relative to vehicle (solubility fold change) (ratio); higher = more soluble protein in presence of AMP-PNP
Method in brief: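 Eight concentrations, 0.1 to 10 mM, were tested on Jurkat crude lysate for 10 min at room temperature and then 3 min at 37 °C, in three independent experiments. The lysate was solubilised with 0.8% NP40 and benzonase, ultracentrifuged, and the supernatant TMT-labelled for LC-MS/MS. Each value is the fold change against the detergent-processed vehicle in its own replicate, from vsn-normalised intensities.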

Amino acid sequences for entries named in this document (tags omitted). A change or cut given only in a name is not applied to a line headed by its entry.
UniProt O60343: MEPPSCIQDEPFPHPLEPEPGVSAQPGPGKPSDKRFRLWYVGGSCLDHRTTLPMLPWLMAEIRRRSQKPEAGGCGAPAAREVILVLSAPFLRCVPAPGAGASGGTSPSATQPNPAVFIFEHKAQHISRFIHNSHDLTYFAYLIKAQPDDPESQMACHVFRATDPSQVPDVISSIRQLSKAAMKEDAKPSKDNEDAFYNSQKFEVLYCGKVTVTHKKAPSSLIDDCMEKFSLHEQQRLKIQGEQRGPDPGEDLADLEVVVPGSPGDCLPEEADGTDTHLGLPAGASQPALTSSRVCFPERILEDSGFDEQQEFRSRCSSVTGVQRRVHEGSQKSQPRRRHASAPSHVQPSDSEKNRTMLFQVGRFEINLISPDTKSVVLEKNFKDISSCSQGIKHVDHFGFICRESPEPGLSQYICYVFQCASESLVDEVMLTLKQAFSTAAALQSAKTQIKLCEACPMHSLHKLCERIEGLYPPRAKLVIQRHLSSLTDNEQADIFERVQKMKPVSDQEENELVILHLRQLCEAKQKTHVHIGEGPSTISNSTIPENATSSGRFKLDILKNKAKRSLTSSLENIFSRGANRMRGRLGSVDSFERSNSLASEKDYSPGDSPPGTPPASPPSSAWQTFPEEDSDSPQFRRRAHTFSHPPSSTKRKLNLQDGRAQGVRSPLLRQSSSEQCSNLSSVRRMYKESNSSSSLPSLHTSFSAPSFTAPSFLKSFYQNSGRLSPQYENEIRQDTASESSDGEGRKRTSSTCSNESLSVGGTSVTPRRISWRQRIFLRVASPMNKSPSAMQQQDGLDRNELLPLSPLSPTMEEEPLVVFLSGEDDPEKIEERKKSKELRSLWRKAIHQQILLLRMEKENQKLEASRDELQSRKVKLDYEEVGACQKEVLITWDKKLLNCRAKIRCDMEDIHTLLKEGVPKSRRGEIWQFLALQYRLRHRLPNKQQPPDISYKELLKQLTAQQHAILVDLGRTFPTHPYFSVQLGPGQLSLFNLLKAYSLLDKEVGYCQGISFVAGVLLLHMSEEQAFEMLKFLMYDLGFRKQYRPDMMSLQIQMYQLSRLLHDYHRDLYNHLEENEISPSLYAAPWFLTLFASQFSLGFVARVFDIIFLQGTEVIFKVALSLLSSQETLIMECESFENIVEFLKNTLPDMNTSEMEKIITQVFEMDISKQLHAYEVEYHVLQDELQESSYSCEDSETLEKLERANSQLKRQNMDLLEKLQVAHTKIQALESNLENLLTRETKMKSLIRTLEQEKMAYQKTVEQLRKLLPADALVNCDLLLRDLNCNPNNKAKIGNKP
UniProt O75179: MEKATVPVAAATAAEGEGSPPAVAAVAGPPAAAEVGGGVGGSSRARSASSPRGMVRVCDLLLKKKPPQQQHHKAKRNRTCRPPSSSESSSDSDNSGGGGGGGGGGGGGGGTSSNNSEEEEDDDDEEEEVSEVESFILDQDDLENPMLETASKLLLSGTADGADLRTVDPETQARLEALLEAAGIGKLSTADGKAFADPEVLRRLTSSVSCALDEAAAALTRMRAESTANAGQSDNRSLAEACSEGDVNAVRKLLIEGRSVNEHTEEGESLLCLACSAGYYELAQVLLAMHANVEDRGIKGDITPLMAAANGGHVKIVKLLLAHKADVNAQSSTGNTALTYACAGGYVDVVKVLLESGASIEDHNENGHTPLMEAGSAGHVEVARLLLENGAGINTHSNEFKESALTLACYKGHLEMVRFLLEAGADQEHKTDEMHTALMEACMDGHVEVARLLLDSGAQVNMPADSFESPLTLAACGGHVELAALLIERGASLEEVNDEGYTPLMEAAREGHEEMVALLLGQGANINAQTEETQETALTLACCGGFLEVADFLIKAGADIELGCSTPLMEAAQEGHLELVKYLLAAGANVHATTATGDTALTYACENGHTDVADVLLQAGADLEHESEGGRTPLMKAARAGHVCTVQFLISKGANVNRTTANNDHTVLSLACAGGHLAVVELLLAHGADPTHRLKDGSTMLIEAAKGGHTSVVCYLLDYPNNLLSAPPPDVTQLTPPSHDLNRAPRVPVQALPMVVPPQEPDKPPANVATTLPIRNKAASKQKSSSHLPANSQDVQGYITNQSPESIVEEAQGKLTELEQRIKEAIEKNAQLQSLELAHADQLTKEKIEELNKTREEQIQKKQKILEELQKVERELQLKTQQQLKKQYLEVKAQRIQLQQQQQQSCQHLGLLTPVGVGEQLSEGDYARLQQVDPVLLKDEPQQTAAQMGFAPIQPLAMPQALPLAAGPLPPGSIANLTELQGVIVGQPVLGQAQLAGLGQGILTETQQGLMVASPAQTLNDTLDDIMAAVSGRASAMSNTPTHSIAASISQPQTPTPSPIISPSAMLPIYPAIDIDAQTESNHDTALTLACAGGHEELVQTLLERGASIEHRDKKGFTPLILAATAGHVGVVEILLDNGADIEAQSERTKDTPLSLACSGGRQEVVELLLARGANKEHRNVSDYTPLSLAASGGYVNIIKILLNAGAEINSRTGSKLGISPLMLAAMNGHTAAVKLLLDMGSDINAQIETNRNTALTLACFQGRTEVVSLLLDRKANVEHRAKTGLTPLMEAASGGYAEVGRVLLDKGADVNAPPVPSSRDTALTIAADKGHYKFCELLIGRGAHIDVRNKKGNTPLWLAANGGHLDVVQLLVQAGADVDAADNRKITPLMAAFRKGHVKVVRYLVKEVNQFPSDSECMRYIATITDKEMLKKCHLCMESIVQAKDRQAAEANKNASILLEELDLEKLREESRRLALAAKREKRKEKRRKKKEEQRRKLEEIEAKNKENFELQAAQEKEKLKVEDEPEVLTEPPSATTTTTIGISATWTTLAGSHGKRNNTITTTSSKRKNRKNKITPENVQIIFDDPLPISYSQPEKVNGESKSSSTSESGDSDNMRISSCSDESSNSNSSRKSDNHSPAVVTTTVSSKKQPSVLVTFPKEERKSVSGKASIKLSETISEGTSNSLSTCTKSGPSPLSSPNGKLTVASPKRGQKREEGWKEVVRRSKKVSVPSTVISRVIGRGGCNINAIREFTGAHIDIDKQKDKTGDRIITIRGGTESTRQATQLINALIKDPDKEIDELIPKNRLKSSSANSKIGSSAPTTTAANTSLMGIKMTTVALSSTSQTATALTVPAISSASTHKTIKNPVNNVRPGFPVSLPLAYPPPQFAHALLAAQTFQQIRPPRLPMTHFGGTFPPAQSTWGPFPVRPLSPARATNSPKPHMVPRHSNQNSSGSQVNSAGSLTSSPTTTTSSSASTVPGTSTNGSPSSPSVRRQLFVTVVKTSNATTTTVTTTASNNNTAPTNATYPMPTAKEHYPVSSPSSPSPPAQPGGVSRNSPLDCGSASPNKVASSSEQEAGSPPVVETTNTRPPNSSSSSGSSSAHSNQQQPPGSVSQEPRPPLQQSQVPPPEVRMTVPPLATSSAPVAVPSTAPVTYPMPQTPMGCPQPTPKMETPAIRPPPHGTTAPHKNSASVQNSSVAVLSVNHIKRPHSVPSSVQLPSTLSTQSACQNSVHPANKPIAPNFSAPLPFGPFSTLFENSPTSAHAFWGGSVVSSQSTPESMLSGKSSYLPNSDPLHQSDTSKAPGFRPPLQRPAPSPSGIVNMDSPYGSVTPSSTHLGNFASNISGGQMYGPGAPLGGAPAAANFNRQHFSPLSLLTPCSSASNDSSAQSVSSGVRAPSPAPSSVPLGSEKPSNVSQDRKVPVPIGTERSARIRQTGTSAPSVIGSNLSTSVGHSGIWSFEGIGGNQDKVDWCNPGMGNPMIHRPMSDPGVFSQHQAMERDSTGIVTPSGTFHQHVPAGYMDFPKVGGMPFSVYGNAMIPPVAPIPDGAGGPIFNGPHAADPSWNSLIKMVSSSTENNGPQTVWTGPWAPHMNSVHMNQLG
UniProt O75369, whole entry: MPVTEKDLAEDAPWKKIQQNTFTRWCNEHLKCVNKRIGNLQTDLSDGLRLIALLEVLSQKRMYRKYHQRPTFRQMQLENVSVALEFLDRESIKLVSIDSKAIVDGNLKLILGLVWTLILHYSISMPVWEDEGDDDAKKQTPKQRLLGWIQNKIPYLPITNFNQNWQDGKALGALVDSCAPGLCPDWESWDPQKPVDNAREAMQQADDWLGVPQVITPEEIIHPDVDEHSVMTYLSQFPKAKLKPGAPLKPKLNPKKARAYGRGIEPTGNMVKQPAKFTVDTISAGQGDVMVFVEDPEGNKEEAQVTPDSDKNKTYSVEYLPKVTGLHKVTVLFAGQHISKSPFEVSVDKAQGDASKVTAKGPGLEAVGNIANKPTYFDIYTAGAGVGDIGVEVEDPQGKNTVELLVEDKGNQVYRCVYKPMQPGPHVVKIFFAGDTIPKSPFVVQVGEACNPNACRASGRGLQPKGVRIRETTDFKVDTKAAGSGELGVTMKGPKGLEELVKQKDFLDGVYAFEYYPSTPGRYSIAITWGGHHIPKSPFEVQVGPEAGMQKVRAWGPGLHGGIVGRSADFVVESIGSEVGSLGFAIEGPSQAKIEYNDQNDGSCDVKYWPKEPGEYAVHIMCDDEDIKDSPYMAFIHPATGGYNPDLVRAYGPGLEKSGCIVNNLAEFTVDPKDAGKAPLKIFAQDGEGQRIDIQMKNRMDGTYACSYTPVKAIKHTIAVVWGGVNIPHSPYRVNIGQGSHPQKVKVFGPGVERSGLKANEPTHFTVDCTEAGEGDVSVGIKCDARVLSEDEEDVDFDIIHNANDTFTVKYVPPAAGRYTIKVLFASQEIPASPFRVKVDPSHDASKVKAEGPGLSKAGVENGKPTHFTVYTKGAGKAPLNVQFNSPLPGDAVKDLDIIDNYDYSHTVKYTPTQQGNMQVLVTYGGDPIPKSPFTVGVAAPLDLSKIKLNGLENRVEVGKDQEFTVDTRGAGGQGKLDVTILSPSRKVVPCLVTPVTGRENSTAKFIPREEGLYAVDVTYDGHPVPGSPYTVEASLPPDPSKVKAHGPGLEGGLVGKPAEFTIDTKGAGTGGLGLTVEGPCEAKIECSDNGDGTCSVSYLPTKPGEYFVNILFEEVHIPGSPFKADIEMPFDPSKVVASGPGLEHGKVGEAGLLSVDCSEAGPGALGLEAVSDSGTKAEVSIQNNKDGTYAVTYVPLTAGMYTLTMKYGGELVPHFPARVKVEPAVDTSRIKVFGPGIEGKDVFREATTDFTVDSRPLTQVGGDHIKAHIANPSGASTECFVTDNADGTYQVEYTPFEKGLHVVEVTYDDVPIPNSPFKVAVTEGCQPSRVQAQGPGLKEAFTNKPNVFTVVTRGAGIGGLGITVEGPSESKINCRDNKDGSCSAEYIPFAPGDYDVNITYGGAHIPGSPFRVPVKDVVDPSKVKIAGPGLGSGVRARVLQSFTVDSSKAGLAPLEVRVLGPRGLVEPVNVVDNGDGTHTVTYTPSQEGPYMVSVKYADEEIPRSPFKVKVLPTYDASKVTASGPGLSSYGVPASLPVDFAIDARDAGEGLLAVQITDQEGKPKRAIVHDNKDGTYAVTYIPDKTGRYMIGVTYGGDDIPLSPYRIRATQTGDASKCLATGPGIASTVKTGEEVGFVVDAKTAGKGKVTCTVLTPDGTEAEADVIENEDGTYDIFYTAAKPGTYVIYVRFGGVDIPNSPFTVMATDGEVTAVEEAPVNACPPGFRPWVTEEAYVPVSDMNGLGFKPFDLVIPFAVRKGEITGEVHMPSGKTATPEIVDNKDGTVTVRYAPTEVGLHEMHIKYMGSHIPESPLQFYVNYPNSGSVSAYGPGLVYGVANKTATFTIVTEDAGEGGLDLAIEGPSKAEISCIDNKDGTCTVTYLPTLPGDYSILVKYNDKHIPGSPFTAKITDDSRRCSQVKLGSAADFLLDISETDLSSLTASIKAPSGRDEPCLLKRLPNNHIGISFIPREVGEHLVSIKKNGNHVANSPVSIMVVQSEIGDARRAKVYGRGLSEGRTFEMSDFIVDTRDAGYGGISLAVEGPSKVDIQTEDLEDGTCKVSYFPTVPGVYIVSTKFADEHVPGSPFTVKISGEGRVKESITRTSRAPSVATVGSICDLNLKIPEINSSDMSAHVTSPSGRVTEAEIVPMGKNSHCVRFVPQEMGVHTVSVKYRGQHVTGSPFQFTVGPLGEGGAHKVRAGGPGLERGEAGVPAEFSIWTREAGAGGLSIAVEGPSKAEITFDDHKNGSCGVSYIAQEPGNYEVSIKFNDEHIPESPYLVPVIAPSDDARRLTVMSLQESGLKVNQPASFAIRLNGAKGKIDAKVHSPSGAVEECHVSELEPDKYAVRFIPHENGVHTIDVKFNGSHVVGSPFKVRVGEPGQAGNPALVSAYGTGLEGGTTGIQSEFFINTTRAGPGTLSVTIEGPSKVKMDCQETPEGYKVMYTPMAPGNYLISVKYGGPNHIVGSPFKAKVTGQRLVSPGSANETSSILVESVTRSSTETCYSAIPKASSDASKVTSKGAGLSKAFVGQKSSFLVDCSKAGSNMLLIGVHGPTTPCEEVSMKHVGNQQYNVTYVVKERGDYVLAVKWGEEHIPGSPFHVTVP

Target: TIPRL (UniProt O75663)
- NP40-soluble protein abundance (concentration: 0.1mM): 1 ± 0.043
- NP40-soluble protein abundance (concentration: 0.5mM): 1.02 ± 0.036

Target: ZBTB11 (UniProt O95625)
- NP40-soluble protein abundance (concentration: 0.1mM): 1.01 ± 0.022
- NP40-soluble protein abundance (concentration: 0.5mM): 0.986 ± 0.027

Target: N4BP1 (UniProt O75113)
- NP40-soluble protein abundance (concentration: 0.1mM): 0.978 ± 0.027
- NP40-soluble protein abundance (concentration: 0.5mM): 0.981 ± 0.012

Target: PALM (UniProt O75781)
- NP40-soluble protein abundance (concentration: 0.1mM): 0.974 ± 0.016
- NP40-soluble protein abundance (concentration: 0.5mM): 0.943 ± 0.025

Target: UniProt O95613 and related entries
- NP40-soluble protein abundance (concentration: 0.1mM): 0.956 ± 0.039
- NP40-soluble protein abundance (concentration: 0.5mM): 0.924 ± 0.051

Target: EXTL3 (UniProt O43909)
- NP40-soluble protein abundance (concentration: 0.1mM): 0.992 ± 0.015
- NP40-soluble protein abundance (concentration: 0.5mM): 1.01 ± 0.016

Target: UniProt O60343 and related entries
- NP40-soluble protein abundance (concentration: 0.1mM): 1.01 ± 0.059
- NP40-soluble protein abundance (concentration: 0.5mM): 1 ± 0.0078

Target: UniProt O60830 and related entries
- NP40-soluble protein abundance (concentration: 0.1mM): 1 ± 0.04
- NP40-soluble protein abundance (concentration: 0.5mM): 1.02 ± 0.051

Target: GGCT (UniProt O75223)
- NP40-soluble protein abundance (concentration: 0.1mM): 0.983 ± 0.021
- NP40-soluble protein abundance (concentration: 0.5mM): 1.04 ± 0.066

Target: UniProt O95297 and related entries
- NP40-soluble protein abundance (concentration: 0.1mM): 0.917 ± 0.039
- NP40-soluble protein abundance (concentration: 0.5mM): 0.978 ± 0.026

Target: UniProt O95071 and related entries
- NP40-soluble protein abundance (concentration: 0.1mM): 1.03 ± 0.055
- NP40-soluble protein abundance (concentration: 0.5mM): 1 ± 0.046

Target: WBP4 (UniProt O75554)
- NP40-soluble protein abundance (concentration: 0.1mM): 0.9415 ± 0.0075
- NP40-soluble protein abundance (concentration: 0.5mM): 0.986 ± 0.04

Target: UniProt O60488 and related entries
- NP40-soluble protein abundance (concentration: 0.1mM): 1.02 ± 0.018
- NP40-soluble protein abundance (concentration: 0.5mM): 1.05 ± 0.014

Target: ENDOD1 (UniProt O94919)
- NP40-soluble protein abundance (concentration: 0.1mM): 1.03 ± 0.027
- NP40-soluble protein abundance (concentration: 0.5mM): 1.03 ± 0.027

Target: UniProt O75175 and related entries
- NP40-soluble protein abundance (concentration: 0.1mM): 0.94 ± 0.0095
- NP40-soluble protein abundance (concentration: 0.5mM): 0.945 ± 0.036

Target: UniProt O95429 and related entries
- NP40-soluble protein abundance (concentration: 0.1mM): 1.011 ± 0.01
- NP40-soluble protein abundance (concentration: 0.5mM): 1.006 ± 0.0046

Target: SMARCA5 (UniProt O60264)
- NP40-soluble protein abundance (concentration: 0.1mM): 1.03 ± 0.025
- NP40-soluble protein abundance (concentration: 0.5mM): 1.04 ± 0.043

Target: UniProt O75964
- NP40-soluble protein abundance (concentration: 0.1mM): 1.01 ± 0.061
- NP40-soluble protein abundance (concentration: 0.5mM): 1.09 ± 0.1

Target: PRPSAP2 (UniProt O60256)
- NP40-soluble protein abundance (concentration: 0.1mM): 1.03 ± 0.052
- NP40-soluble protein abundance (concentration: 0.5mM): 0.922 ± 0.057

Target: MTA2 (UniProt O94776)
- NP40-soluble protein abundance (concentration: 0.1mM): 0.999 ± 0.019
- NP40-soluble protein abundance (concentration: 0.5mM): 1.01 ± 0.016

Target: UniProt O94855 and related entries
- NP40-soluble protein abundance (concentration: 0.1mM): 1.01 ± 0.05
- NP40-soluble protein abundance (concentration: 0.5mM): 1 ± 0.025

Target: UniProt O75145 and related entries
- NP40-soluble protein abundance (concentration: 0.1mM): 0.989 ± 0.061
- NP40-soluble protein abundance (concentration: 0.5mM): 0.989 ± 0.045

Target: STAMBP (UniProt O95630)
- NP40-soluble protein abundance (concentration: 0.1mM): 0.977 ± 0.014
- NP40-soluble protein abundance (concentration: 0.5mM): 1 ± 0.036

Target: ARIH2 (UniProt O95376)
- NP40-soluble protein abundance (concentration: 0.1mM): 0.978 ± 0.01
- NP40-soluble protein abundance (concentration: 0.5mM): 0.989 ± 0.079

Target: UniProt O94826
- NP40-soluble protein abundance (concentration: 0.1mM): 0.978 ± 0.033
- NP40-soluble protein abundance (concentration: 0.5mM): 0.992 ± 0.034

Target: UniProt O94916 and related entries
- NP40-soluble protein abundance (concentration: 0.1mM): 1.02 ± 0.055
- NP40-soluble protein abundance (concentration: 0.5mM): 1.01 ± 0.023

Target: UniProt O94973 and related entries
- NP40-soluble protein abundance (concentration: 0.1mM): 1.04 ± 0.018
- NP40-soluble protein abundance (concentration: 0.5mM): 1.04 ± 0.032

Target: UniProt O94966-6|O94966-7
- NP40-soluble protein abundance (concentration: 0.1mM): 0.987 ± 0.018
- NP40-soluble protein abundance (concentration: 0.5mM): 0.96 ± 0.043

Target: SMNDC1 (UniProt O75940)
- NP40-soluble protein abundance (concentration: 0.1mM): 1.02 ± 0.032
- NP40-soluble protein abundance (concentration: 0.5mM): 1.04 ± 0.054

Target: UniProt O75037 and related entries
- NP40-soluble protein abundance (concentration: 0.1mM): 1.03 ± 0.042
- NP40-soluble protein abundance (concentration: 0.5mM): 0.999 ± 0.025

Target: UniProt O60504-2|O60504
- NP40-soluble protein abundance (concentration: 0.1mM): 1 ± 0.016
- NP40-soluble protein abundance (concentration: 0.5mM): 1.016 ± 0.0084

Target: UniProt O75928 and related entries
- NP40-soluble protein abundance (concentration: 0.1mM): 0.975 ± 0.022
- NP40-soluble protein abundance (concentration: 0.5mM): 1 ± 0.022

Target: UniProt O75164
- NP40-soluble protein abundance (concentration: 0.1mM): 0.977 ± 0.027
- NP40-soluble protein abundance (concentration: 0.5mM): 0.956 ± 0.037

Target: TOX (UniProt O94900)
- NP40-soluble protein abundance (concentration: 0.1mM): 0.946 ± 0.025
- NP40-soluble protein abundance (concentration: 0.5mM): 0.988 ± 0.068

Target: PLOD3 (UniProt O60568)
- NP40-soluble protein abundance (concentration: 0.1mM): 1 ± 0.02
- NP40-soluble protein abundance (concentration: 0.5mM): 1 ± 0.027

Target: USP1 (UniProt O94782)
- NP40-soluble protein abundance (concentration: 0.1mM): 1.06 ± 0.18
- NP40-soluble protein abundance (concentration: 0.5mM): 0.994 ± 0.044

Target: RNGTT (UniProt O60942)
- NP40-soluble protein abundance (concentration: 0.1mM): 0.987 ± 0.015
- NP40-soluble protein abundance (concentration: 0.5mM): 0.975 ± 0.035

Target: DDHD2 (UniProt O94830)
- NP40-soluble protein abundance (concentration: 0.1mM): 0.996 ± 0.069
- NP40-soluble protein abundance (concentration: 0.5mM): 0.96 ± 0.059

Target: SNAPIN (UniProt O95295)
- NP40-soluble protein abundance (concentration: 0.1mM): 0.989 ± 0.019
- NP40-soluble protein abundance (concentration: 0.5mM): 0.998 ± 0.05

Target: UniProt O95619 and related entries
- NP40-soluble protein abundance (concentration: 0.1mM): 1.01 ± 0.052
- NP40-soluble protein abundance (concentration: 0.5mM): 1.03 ± 0.063

Target: UniProt O94762 and related entries
- NP40-soluble protein abundance (concentration: 0.1mM): 0.996 ± 0.048
- NP40-soluble protein abundance (concentration: 0.5mM): 0.968 ± 0.028

Target: DUSP11 (UniProt O75319)
- NP40-soluble protein abundance (concentration: 0.1mM): 1.02 ± 0.037
- NP40-soluble protein abundance (concentration: 0.5mM): 1.03 ± 0.037

Target: UniProt O75179 and related entries
- NP40-soluble protein abundance (concentration: 0.1mM): 0.991 ± 0.015
- NP40-soluble protein abundance (concentration: 0.5mM): 1.01 ± 0.031

Target: AGFG2 (UniProt O95081)
- NP40-soluble protein abundance (concentration: 0.1mM): 0.97 ± 0.025
- NP40-soluble protein abundance (concentration: 0.5mM): 0.993 ± 0.021

Target: NDUFS6 (UniProt O75380)
- NP40-soluble protein abundance (concentration: 0.1mM): 0.962 ± 0.042
- NP40-soluble protein abundance (concentration: 0.5mM): 1.02 ± 0.076

Target: PRMT3 (UniProt O60678)
- NP40-soluble protein abundance (concentration: 0.1mM): 1.02 ± 0.024
- NP40-soluble protein abundance (concentration: 0.5mM): 0.951 ± 0.049

Target: SNX3 (UniProt O60493)
- NP40-soluble protein abundance (concentration: 0.1mM): 0.997 ± 0.046
- NP40-soluble protein abundance (concentration: 0.5mM): 1.05 ± 0.13

Target: UniProt O75369-8|O75369-9|O75369 and related entries
- NP40-soluble protein abundance (concentration: 0.1mM): 0.968 ± 0.01
- NP40-soluble protein abundance (concentration: 0.5mM): 0.995 ± 0.035

Target: UniProt O76095 and related entries
- NP40-soluble protein abundance (concentration: 0.1mM): 0.984 ± 0.049
- NP40-soluble protein abundance (concentration: 0.5mM): 0.99 ± 0.023

Target: RNASEH2A (UniProt O75792)
- NP40-soluble protein abundance (concentration: 0.1mM): 0.991 ± 0.018
- NP40-soluble protein abundance (concentration: 0.5mM): 1 ± 0.043

Target: UniProt O75071
- NP40-soluble protein abundance (concentration: 0.1mM): 1 ± 0.032
- NP40-soluble protein abundance (concentration: 0.5mM): 0.98 ± 0.021

Target: ZMPSTE24 (UniProt O75844)
- NP40-soluble protein abundance (concentration: 0.1mM): 1.01 ± 0.095
- NP40-soluble protein abundance (concentration: 0.5mM): 0.983 ± 0.14

Target: UniProt O75379 and related entries
- NP40-soluble protein abundance (concentration: 0.1mM): 0.989 ± 0.048
- NP40-soluble protein abundance (concentration: 0.5mM): 1.01 ± 0.022

Target: ATG7 (UniProt O95352)
- NP40-soluble protein abundance (concentration: 0.1mM): 1.01 ± 0.042
- NP40-soluble protein abundance (concentration: 0.5mM): 0.981 ± 0.083

Target: MRPS14 (UniProt O60783)
- NP40-soluble protein abundance (concentration: 0.1mM): 1.03 ± 0.026
- NP40-soluble protein abundance (concentration: 0.5mM): 0.974 ± 0.036

Target: UniProt O60645 and related entries
- NP40-soluble protein abundance (concentration: 0.1mM): 1.01 ± 0.038
- NP40-soluble protein abundance (concentration: 0.5mM): 0.985 ± 0.021

Target: UBXN7 (UniProt O94888)
- NP40-soluble protein abundance (concentration: 0.1mM): 0.9941 ± 0.0063
- NP40-soluble protein abundance (concentration: 0.5mM): 1.02 ± 0.044

Target: MED26 (UniProt O95402)
- NP40-soluble protein abundance (concentration: 0.1mM): 1.05 ± 0.017
- NP40-soluble protein abundance (concentration: 0.5mM): 1.03 ± 0.034

Target: IPO13 (UniProt O94829)
- NP40-soluble protein abundance (concentration: 0.1mM): 0.9692 ± 0.0035
- NP40-soluble protein abundance (concentration: 0.5mM): 0.9672 ± 0.0074

Target: ATG12 (UniProt O94817)
- NP40-soluble protein abundance (concentration: 0.1mM): 0.977 ± 0.028
- NP40-soluble protein abundance (concentration: 0.5mM): 1.01 ± 0.022

Target: UniProt O60502
- NP40-soluble protein abundance (concentration: 0.1mM): 0.975 ± 0.016
- NP40-soluble protein abundance (concentration: 0.5mM): 0.974 ± 0.046

— the supplement of paper PMC6411743
